Measurements from publication doi:10.1101/287516.
Where two headings read alike, the source gives them in different places. Results are given in words; binding and its absence hold for the method and conditions named. Some binding calls cover weakened binding; strength is not graded here. Tags and fused reporters may be left off the sequences shown.

Sequences of proteins named here, by UniProt entry; tags and fusion partners are left off.
UniProt P51149: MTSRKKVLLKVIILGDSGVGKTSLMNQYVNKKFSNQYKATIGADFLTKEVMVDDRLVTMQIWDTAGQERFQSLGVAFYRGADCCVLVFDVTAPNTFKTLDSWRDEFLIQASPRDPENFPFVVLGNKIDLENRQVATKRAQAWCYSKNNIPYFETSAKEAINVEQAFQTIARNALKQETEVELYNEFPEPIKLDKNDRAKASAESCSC

Columns and labels:
GST-RabGDIα [1] = target: T1, GST-RabGDIα (UniProt P31150); assay: pull-down
T1 sequence: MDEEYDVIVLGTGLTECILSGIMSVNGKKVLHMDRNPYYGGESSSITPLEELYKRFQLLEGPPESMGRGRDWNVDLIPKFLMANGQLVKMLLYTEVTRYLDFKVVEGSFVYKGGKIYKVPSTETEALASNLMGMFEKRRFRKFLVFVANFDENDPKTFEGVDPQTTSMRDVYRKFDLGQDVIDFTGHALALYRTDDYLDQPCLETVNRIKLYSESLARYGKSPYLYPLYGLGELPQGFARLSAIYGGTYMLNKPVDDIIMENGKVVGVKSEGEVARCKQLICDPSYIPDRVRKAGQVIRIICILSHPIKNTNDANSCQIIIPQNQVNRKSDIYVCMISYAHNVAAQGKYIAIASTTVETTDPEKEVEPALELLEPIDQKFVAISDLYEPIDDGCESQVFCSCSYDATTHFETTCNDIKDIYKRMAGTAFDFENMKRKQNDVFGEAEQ

GST-RabGDIα [2] = target: T1, GST-RabGDIα; assay: pull-down; remark: listed apart in the source

binding (GST-RabGDIα [1]): binds
binding (GST-RabGDIα [2]): binds
Substance: recombinant prenylated Rab7 (from UniProt P51149 1-207)
